# From paper doi:10.1101/2023.06.12.544600
# No constants are given. Whether binding was seen depends on the method and setting. Binding seen in cells or lysates may run through a third protein. Binding calls can cover weak binding; strength is not graded here. Sequences can lack the tags named with a protein.
# Biological target: T1, Dmo2p with its C-terminal fused to protein C epitope followed by polyhistidine (Dmo2p-CH) (S. cerevisiae) (UniProt Q12082)
# T1 sequence: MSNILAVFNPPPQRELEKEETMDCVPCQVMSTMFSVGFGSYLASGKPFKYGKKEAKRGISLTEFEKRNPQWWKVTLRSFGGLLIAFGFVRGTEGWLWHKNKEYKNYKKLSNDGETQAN
# Experiment: co-IP
row,Substance,binding
1,Sco1p (S. cerevisiae (endogenous in W303)),binds
2,Sco2p (S. cerevisiae (endogenous in W303)),binds
